Assay results reported in patent US10761045B2, “Sensor, sensor system, method of manufacturing sensor, and method of measuring concentration of target substance” (PHC Holdings Corporation, priority 2010, dated 2020).

Experiments:
[1] = Stability test (exposure test) of sensor at 30° C., 80% humidity; conditions: additive in reagent layer; additive conc. 1.0-5.0 mM
[2] = Storage stability of reagent solution (response current of sensors made with stored vs fresh reagent solution); type: physicochemical
Text: A sensor having the configuration illustrated in FIG. 1 was manufactured. The detailed procedure will now be described. First, by sputtering palladium, 8 nm-thick conductive layer 3 was deposited on substrate 2 which was 30 mm in length, 7 mm in width and 0.2 mm in thickness and which contained polyethylene terephthalate as its main component. Thereafter, a 0.1 mm-width non-conductive track was formed by laser ablation, to form electrodes 31 to 33. Electrode 31 was designed to function as a working electrode, electrode 32 as a counter electrode, and electrode 33 as a sensing electrode.
Using a microsyringe, 1.2 μL of each reagent solution was applied to form reagent layer 4 in a shape of 2.2 mm diameter-circular. After formation of reagent layer 4, spacer 5 (0.145 mm thick) having a cut-out with a length of 3.4 mm a width of 1.2 mm and cover 6 were sequentially attached to the substrate having the electrodes formed thereon. In this way a sensor was manufactured that has a capillary having a volume of 0.6 μL. […]
Response current values of each sensor were measured using a series of glucose solutions of known concentrations. […]

Sensor stability % change in response current value between before and after 24 hours exposure at 30° C. and 80% humidity [1]: −22%
Reagent solution stability % change in response current value between before and after 24 hours storage at 25° C. [2]: −19%
Compound: NCCC[C@H](N)C(=O)O [Ornithine, reference compound]
